Experiment [1] addresses T1, serum response factor (human (endogenous in HASMCs)) (UniProt P11831).
T1 sequence: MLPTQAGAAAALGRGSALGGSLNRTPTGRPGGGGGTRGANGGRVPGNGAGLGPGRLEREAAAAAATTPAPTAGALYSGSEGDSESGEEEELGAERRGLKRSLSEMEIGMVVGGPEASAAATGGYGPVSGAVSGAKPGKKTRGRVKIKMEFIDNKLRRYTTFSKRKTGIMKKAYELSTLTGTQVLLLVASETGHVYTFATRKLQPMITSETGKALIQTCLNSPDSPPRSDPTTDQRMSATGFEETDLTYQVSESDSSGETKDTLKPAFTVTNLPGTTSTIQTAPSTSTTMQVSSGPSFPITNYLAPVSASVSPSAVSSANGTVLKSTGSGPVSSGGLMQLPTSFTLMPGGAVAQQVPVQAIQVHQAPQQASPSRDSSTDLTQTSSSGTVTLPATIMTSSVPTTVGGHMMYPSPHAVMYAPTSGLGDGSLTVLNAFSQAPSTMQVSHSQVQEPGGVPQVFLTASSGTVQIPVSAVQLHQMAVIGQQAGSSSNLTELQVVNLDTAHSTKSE
Put plainly: co-IP; lysates of HASMCs transfected with pCMV-HA or HA-MYOCD; IP with anti-p-p38 MAPK, anti-SRF or anti-MYOCD antibodies; Western blot with the same three antibodies.

Chains of the proteins cited; added tags and fusions are not shown. Residues count along the entry.
UniProt P11362, residues 22-822: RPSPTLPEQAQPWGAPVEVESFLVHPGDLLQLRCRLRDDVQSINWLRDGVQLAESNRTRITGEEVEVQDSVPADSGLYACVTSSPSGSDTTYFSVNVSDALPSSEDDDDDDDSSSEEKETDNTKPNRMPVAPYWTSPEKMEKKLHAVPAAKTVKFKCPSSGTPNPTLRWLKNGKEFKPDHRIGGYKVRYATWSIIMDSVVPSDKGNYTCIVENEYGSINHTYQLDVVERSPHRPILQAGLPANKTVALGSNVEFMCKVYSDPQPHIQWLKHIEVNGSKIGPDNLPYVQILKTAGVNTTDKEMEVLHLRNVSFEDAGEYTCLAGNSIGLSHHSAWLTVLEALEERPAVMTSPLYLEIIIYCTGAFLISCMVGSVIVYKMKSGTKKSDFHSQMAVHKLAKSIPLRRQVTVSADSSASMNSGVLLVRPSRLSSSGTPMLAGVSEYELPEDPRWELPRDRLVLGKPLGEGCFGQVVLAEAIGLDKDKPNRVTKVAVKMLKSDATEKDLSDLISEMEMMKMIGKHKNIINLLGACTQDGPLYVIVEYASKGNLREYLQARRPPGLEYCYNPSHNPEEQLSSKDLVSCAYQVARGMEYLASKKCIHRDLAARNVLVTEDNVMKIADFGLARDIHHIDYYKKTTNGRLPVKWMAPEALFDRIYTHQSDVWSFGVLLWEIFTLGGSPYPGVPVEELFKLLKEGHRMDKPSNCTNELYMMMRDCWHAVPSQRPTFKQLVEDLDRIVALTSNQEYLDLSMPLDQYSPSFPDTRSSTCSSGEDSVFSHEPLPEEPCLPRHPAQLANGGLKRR

The target in experiment [2] is T2, HA-tagged serum response factor (UniProt P11831).
T2 sequence: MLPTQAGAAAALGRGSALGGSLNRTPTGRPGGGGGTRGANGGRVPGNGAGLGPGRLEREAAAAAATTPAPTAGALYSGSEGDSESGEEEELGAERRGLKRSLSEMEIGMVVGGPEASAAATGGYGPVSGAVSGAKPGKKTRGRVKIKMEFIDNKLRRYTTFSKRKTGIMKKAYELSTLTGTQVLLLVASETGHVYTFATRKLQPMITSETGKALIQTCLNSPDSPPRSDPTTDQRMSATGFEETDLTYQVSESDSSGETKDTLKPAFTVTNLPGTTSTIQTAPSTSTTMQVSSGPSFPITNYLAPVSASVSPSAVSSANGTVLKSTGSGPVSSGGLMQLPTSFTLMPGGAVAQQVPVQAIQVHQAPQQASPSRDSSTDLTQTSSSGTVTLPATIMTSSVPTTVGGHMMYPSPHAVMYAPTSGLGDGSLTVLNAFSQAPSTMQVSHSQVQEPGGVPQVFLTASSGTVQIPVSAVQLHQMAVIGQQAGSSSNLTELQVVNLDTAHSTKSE
In words: co-IP; lysates of HASMCs transfected with pCMV-HA, HA-SRF, or HA-SRF plus siFGF21; IP with HA-tagged magnetic beads; blot with anti-MYOCD, SRF and p38 MAPK antibodies.

Experiment [3] deals with phosphorylated FGF receptor 1 (human (endogenous in HASMCs)) (UniProt P11362). Put plainly: co-IP; lysates of HASMCs transfected with HA-FGF21; IP with anti-p-FGFR1 or anti-p-TAK1 antibodies; Western blot with the same two antibodies. Background: In western blotting, separated proteins are transferred to a membrane and probed.

Results are given in words; binding and its absence hold for the method and conditions named. In cells and extracts the contact can be indirect. Some binding calls cover weakened binding; strength is not graded here. For part of these data: Tags and fused reporters may be left off the sequences shown.

B1: HA-tagged myocardin (protein, UniProt Q8IZQ8 1-938)
chain: MTLLGSEHSLLIRSKFRSVLQLRLQQRRTQEQLANQGIIPPLKRPAEFHEQRKHLDSDKAKNSLKRKARNRCNSADLVNMHILQASTAERSIPTAQMKLKRARLADDLNEKIALRPGPLELVEKNILPVDSAVKEAIKGNQVSFSKSTDAFAFEEDSSSDGLSPDQTRSEDPQNSAGSPPDAKASDTPSTGSLGTNQDLASGSENDRNDSASQPSHQSDAGKQGLGPPSTPIAVHAAVKSKSLGDSKNRHKKPKDPKPKVKKLKYHQYIPPDQKAEKSPPPMDSAYARLLQQQQLFLQLQILSQQQQQQQHRFSYLGMHQAQLKEPNEQMVRNPNSSSTPLSNTPLSPVKNSFSGQTGVSSFKPGPLPPNLDDLKVSELRQQLRIRGLPVSGTKTALMDRLRPFQDCSGNPVPNFGDITTVTFPVTPNTLPNYQSSSSTSALSNGFYHFGSTSSSPPISPASSDLSVAGSLPDTFNDASPSFGLHPSPVHVCTEESLMSSLNGGSVPSELDGLDSEKDKMLVEKQKVINELTWKLQQEQRQVEELRMQLQKQKRNNCSEKKPLPFLAASIKQEEAVSSCPFASQVPVKRQSSSSECHPPACEAAQLQPLGNAHCVESSDQTNVLSSTFLSPQCSPQHSPLGAVKSPQHISLPPSPNNPHFLPSSSGAQGEGHRVSSPISSQVCTAQMAGLHSSDKVGPKFSIPSPTFSKSSSAISEVTQPPSYEDAVKQQMTRSQQMDELLDVLIESGEMPADAREDHSCLQKVPKIPRSSRSPTAVLTKPSASFEQASSGSQIPFDPYATDSDEHLEVLLNSQSPLGKMSDVTLLKIGSEEPHFDGIMDGFSGKAAEDLFNAHEILPGPLSPMQTQFSPSSVDSNGLQLSFTESPWETMEWLDLTPPNSTPGFSALTTSSPSIFNIDFLDVTDLNLNSSMDLHLQQW
With B1, the binding entry in experiment [1] is reported as “binds”.

B2: myocardin (protein, UniProt Q8IZQ8 1-938)
chain: MTLLGSEHSLLIRSKFRSVLQLRLQQRRTQEQLANQGIIPPLKRPAEFHEQRKHLDSDKAKNSLKRKARNRCNSADLVNMHILQASTAERSIPTAQMKLKRARLADDLNEKIALRPGPLELVEKNILPVDSAVKEAIKGNQVSFSKSTDAFAFEEDSSSDGLSPDQTRSEDPQNSAGSPPDAKASDTPSTGSLGTNQDLASGSENDRNDSASQPSHQSDAGKQGLGPPSTPIAVHAAVKSKSLGDSKNRHKKPKDPKPKVKKLKYHQYIPPDQKAEKSPPPMDSAYARLLQQQQLFLQLQILSQQQQQQQHRFSYLGMHQAQLKEPNEQMVRNPNSSSTPLSNTPLSPVKNSFSGQTGVSSFKPGPLPPNLDDLKVSELRQQLRIRGLPVSGTKTALMDRLRPFQDCSGNPVPNFGDITTVTFPVTPNTLPNYQSSSSTSALSNGFYHFGSTSSSPPISPASSDLSVAGSLPDTFNDASPSFGLHPSPVHVCTEESLMSSLNGGSVPSELDGLDSEKDKMLVEKQKVINELTWKLQQEQRQVEELRMQLQKQKRNNCSEKKPLPFLAASIKQEEAVSSCPFASQVPVKRQSSSSECHPPACEAAQLQPLGNAHCVESSDQTNVLSSTFLSPQCSPQHSPLGAVKSPQHISLPPSPNNPHFLPSSSGAQGEGHRVSSPISSQVCTAQMAGLHSSDKVGPKFSIPSPTFSKSSSAISEVTQPPSYEDAVKQQMTRSQQMDELLDVLIESGEMPADAREDHSCLQKVPKIPRSSRSPTAVLTKPSASFEQASSGSQIPFDPYATDSDEHLEVLLNSQSPLGKMSDVTLLKIGSEEPHFDGIMDGFSGKAAEDLFNAHEILPGPLSPMQTQFSPSSVDSNGLQLSFTESPWETMEWLDLTPPNSTPGFSALTTSSPSIFNIDFLDVTDLNLNSSMDLHLQQW
As for B2, in experiment [2], the binding result was “binds”.

B3: phosphorylated transforming growth factor-β-activated kinase 1 (enzyme, UniProt O43318 1-606)
chain: MSTASAASSSSSSSAGEMIEAPSQVLNFEEIDYKEIEVEEVVGRGAFGVVCKAKWRAKDVAIKQIESESERKAFIVELRQLSRVNHPNIVKLYGACLNPVCLVMEYAEGGSLYNVLHGAEPLPYYTAAHAMSWCLQCSQGVAYLHSMQPKALIHRDLKPPNLLLVAGGTVLKICDFGTACDIQTHMTNNKGSAAWMAPEVFEGSNYSEKCDVFSWGIILWEVITRRKPFDEIGGPAFRIMWAVHNGTRPPLIKNLPKPIESLMTRCWSKDPSQRPSMEEIVKIMTHLMRYFPGADEPLQYPCQYSDEGQSNSATSTGSFMDIASTNTSNKSDTNMEQVPATNDTIKRLESKLLKNQAKQQSESGRLSLGASRGSSVESLPPTSEGKRMSADMSEIEARIAATTAYSKPKRGHRKTASFGNILDVPEIVISGNGQPRRRSIQDLTVTGTEPGQVSSRSSSPSVRMITTSGPTSEKPTRSHPWTPDDSTDTNGSDNSIPMAYLTLDHQLQPLAPCPNSKESMAVFEQHCKMAQEYMKVQTEIALLLQRKQELVAELDQDEKDQQNTSRLVQEHKKLLDENKSLSTYYQQCKKQLEVIRSQQQKRQGTS
modifications: phosphorylated (p-TAK1); sites not stated
With B3, the binding result in experiment [3] is “binds”.

Source of the values: publication PMC12324144.
